{"source": "the supplement of paper PMC10373366", "key": {"[1]": {"test_system": "A2780", "test": "cell growth inhibition ratio vs untreated control (CCK8); higher = stronger inhibition of cell viability", "details": "10 µM; 48 h", "method": "(§1)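 Natural product library (Topscience) screened at 10 µM final concentration for 48 h on ovarian cancer A2780 cells and patient-derived ovarian cancer cells (PDC) in 96-well plates; viability read by CCK8 and reported as inhibition ratio (%) relative to untreated control. Single-dose primary screen.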"}, "[2]": {"test_system": "patient-derived ovarian cancer cells (PDC)", "test": "cell growth inhibition ratio vs untreated control (CCK8); higher = stronger inhibition of cell viability", "details": "10 µM; 48 h", "method": "as §1"}}, "note": "Some of the results follow. Repeats are few or missing, and single values can be far off."}
{"smiles": "COc1cc(C[C@H]2C(=O)OC[C@@H]2Cc2ccc(OC)c(OC)c2)ccc1O", "note": "[Arctigenin]", "values": [{"measurement": "cell growth inhibition ratio", "setting": "[1]", "value": 44.6, "unit": "%"}, {"measurement": "cell growth inhibition ratio", "setting": "[2]", "value": 7.88, "unit": "%"}]}
{"smiles": "C[C@@H]1O[C@@H](O[C@H]2[C@H](Oc3cc(O)c4c(c3)O[C@H](c3ccc(O)cc3)CC4=O)O[C@H](CO)[C@@H](O)[C@@H]2O)[C@H](O)[C@H](O)[C@H]1O", "note": "[Naringin]", "values": [{"measurement": "cell growth inhibition ratio", "setting": "[1]", "value": -6.93, "unit": "%"}, {"measurement": "cell growth inhibition ratio", "setting": "[2]", "value": 23.1, "unit": "%"}]}
{"smiles": "C[C@H]1[C@H](C)CC[C@]2(C(=O)O)CC[C@]3(C)C(=CC[C@@H]4[C@@]5(C)C[C@@H](O)[C@H](O)C(C)(C)[C@@H]5CC[C@]43C)[C@H]12", "note": "[Corosolic acid]", "values": [{"measurement": "cell growth inhibition ratio", "setting": "[1]", "value": 21.8, "unit": "%"}, {"measurement": "cell growth inhibition ratio", "setting": "[2]", "value": 15, "unit": "%"}]}
{"smiles": "COc1cc(/C=C/C(=O)OC[C@H]2O[C@H](O[C@]3(CO)O[C@H](CO)[C@@H](O)[C@@H]3OC(=O)/C=C/c3cc(OC)c(O)c(OC)c3)[C@H](O)[C@@H](O)[C@@H]2O)cc(OC)c1O", "note": "[3,6'-Disinapoyl sucrose]", "values": [{"measurement": "cell growth inhibition ratio", "setting": "[1]", "value": 5.14, "unit": "%"}, {"measurement": "cell growth inhibition ratio", "setting": "[2]", "value": -0.165, "unit": "%"}]}
{"smiles": "COc1cc2c(cc1OC)[C@@H]1Cc3ccc(OC)c(OC)c3CN1CC2", "note": "[Tetrahydropalmatine]", "values": [{"measurement": "cell growth inhibition ratio", "setting": "[1]", "value": 5.43, "unit": "%"}, {"measurement": "cell growth inhibition ratio", "setting": "[2]", "value": -8.5, "unit": "%"}]}
{"smiles": "COc1c(O)cc2c(c1O)[C@@H]1O[C@H](CO)[C@@H](O)[C@H](O)[C@H]1OC2=O", "note": "[Bengenin]", "values": [{"measurement": "cell growth inhibition ratio", "setting": "[1]", "value": -7.83, "unit": "%"}, {"measurement": "cell growth inhibition ratio", "setting": "[2]", "value": 4.16, "unit": "%"}]}
{"smiles": "C[C@H](CCC(=O)NCC(=O)O)[C@H]1CC[C@H]2[C@@H]3[C@H](O)C[C@@H]4C[C@H](O)CC[C@]4(C)[C@H]3C[C@H](O)[C@]12C", "note": "[Glycocholic acid]", "values": [{"measurement": "cell growth inhibition ratio", "setting": "[1]", "value": 15.5, "unit": "%"}, {"measurement": "cell growth inhibition ratio", "setting": "[2]", "value": -9.21, "unit": "%"}]}
{"smiles": "COc1ccc(/C=C/C(=O)O)cc1O", "note": "[Isoferulic acid]", "values": [{"measurement": "cell growth inhibition ratio", "setting": "[1]", "value": 3.26, "unit": "%"}, {"measurement": "cell growth inhibition ratio", "setting": "[2]", "value": -5.66, "unit": "%"}]}
{"smiles": "Oc1nc(O)c2nc(O)[nH]c2n1", "values": [{"measurement": "cell growth inhibition ratio", "setting": "[1]", "value": -0.257, "unit": "%"}, {"measurement": "cell growth inhibition ratio", "setting": "[2]", "value": -22.4, "unit": "%"}]}
{"smiles": "N[C@@H](Cc1c[nH]c2ccc(O)cc12)C(=O)O", "note": "[5-hydroxytryptophan (5-HTP)]", "values": [{"measurement": "cell growth inhibition ratio", "setting": "[1]", "value": -2.38, "unit": "%"}, {"measurement": "cell growth inhibition ratio", "setting": "[2]", "value": -12.5, "unit": "%"}]}
{"smiles": "CC(=O)O[C@@H]1[C@@H](OC(C)=O)[C@H](O[C@H]2CC[C@]34C[C@]35CC[C@]3(C)[C@@H]([C@@]6(C)CC[C@@H](C(C)(C)O)O6)[C@@H](O)C[C@@]3(C)[C@@H]5C[C@H](O[C@@H]3O[C@H](CO)[C@@H](O)[C@H](O)[C@H]3O)[C@H]4C2(C)C)OC[C@H]1O", "note": "[Astragaloside I]", "values": [{"measurement": "cell growth inhibition ratio", "setting": "[1]", "value": 10.8, "unit": "%"}, {"measurement": "cell growth inhibition ratio", "setting": "[2]", "value": -11.4, "unit": "%"}]}
{"smiles": "COc1c(O)cc2occ(-c3ccc(O)cc3)c(=O)c2c1O", "note": "[Tectorigenin]", "values": [{"measurement": "cell growth inhibition ratio", "setting": "[1]", "value": 22.1, "unit": "%"}, {"measurement": "cell growth inhibition ratio", "setting": "[2]", "value": 0.634, "unit": "%"}]}
{"smiles": "NCCCNCCCCNCCCN", "note": "[Spermine]", "values": [{"measurement": "cell growth inhibition ratio", "setting": "[1]", "value": -6.03, "unit": "%"}, {"measurement": "cell growth inhibition ratio", "setting": "[2]", "value": -15.1, "unit": "%"}]}
{"smiles": "O=C(O[C@@H]1Cc2c(O)cc(O)cc2O[C@@H]1c1cc(O)c(O)c(O)c1)c1cc(O)c(O)c(O)c1", "note": "[(-)-Epigallocatechin Gallate]", "values": [{"measurement": "cell growth inhibition ratio", "setting": "[1]", "value": -0.72, "unit": "%"}, {"measurement": "cell growth inhibition ratio", "setting": "[2]", "value": -1.74, "unit": "%"}]}
{"smiles": "C[C@@]12CC[C@@H]3[C@@](CC[C@H]4[C@@]3(C)CCC[C@@]4(C)C(=O)O)(CC1=O)C2", "note": "[Isosteviol]", "values": [{"measurement": "cell growth inhibition ratio", "setting": "[1]", "value": 0.972, "unit": "%"}, {"measurement": "cell growth inhibition ratio", "setting": "[2]", "value": -6.16, "unit": "%"}]}
{"smiles": "C[C@@H]1O[C@@H](O[C@H]2[C@H](OC(=O)[C@]34CCC(C)(C)C[C@H]3C3=CC[C@@H]5[C@@]6(C)C[C@H](O)[C@H](O[C@@H]7O[C@H](CO)[C@@H](O)[C@H](O)[C@H]7O)C(CO)(CO)[C@@H]6CC[C@@]5(C)[C@]3(C)C[C@H]4O)OC[C@H](O)[C@@H]2O)[C@H](O)[C@H](O)[C@H]1O[C@@H]1OC[C@@H](O)[C@H](O[C@@H]2OC[C@](O)(CO)[C@H]2O)[C@H]1O", "note": "[Platycodin D]", "values": [{"measurement": "cell growth inhibition ratio", "setting": "[1]", "value": 39.1, "unit": "%"}, {"measurement": "cell growth inhibition ratio", "setting": "[2]", "value": 9.11, "unit": "%"}]}
{"smiles": "O=C1c2c(O)cc(O)cc2OC(c2ccc(O)c(O)c2)C1O", "note": "(centres undefined) [Taxifolin (Dihydroquercetin)]", "values": [{"measurement": "cell growth inhibition ratio", "setting": "[1]", "value": -19.2, "unit": "%"}, {"measurement": "cell growth inhibition ratio", "setting": "[2]", "value": -7.27, "unit": "%"}]}
{"smiles": "O=C1CC(c2ccccc2)Oc2ccccc21", "note": "(centres undefined) [Flavanone]", "values": [{"measurement": "cell growth inhibition ratio", "setting": "[1]", "value": 9.01, "unit": "%"}, {"measurement": "cell growth inhibition ratio", "setting": "[2]", "value": 4.99, "unit": "%"}]}
{"smiles": "Oc1ccc(/C=C/c2cc(O)cc(O)c2)cc1", "note": "[Resveratrol]", "values": [{"measurement": "cell growth inhibition ratio", "setting": "[1]", "value": 39.4, "unit": "%"}, {"measurement": "cell growth inhibition ratio", "setting": "[2]", "value": 15.2, "unit": "%"}]}
{"smiles": "O=C(OC[C@H]1O[C@@H](OC(=O)c2cc(O)c(O)c(OC(=O)c3cc(O)c(O)c(O)c3)c2)[C@H](OC(=O)c2cc(O)c(O)c(OC(=O)c3cc(O)c(O)c(O)c3)c2)[C@@H](OC(=O)c2cc(O)c(O)c(OC(=O)c3cc(O)c(O)c(O)c3)c2)[C@@H]1OC(=O)c1cc(O)c(O)c(OC(=O)c2cc(O)c(O)c(O)c2)c1)c1cc(O)c(O)c(OC(=O)c2cc(O)c(O)c(O)c2)c1", "note": "[Glycerite]", "values": [{"measurement": "cell growth inhibition ratio", "setting": "[1]", "value": 8.22, "unit": "%"}, {"measurement": "cell growth inhibition ratio", "setting": "[2]", "value": -6.41, "unit": "%"}]}
{"smiles": "COc1c(O)cc(O)c2c(=O)cc(-c3ccccc3)oc12", "note": "[Wogonin]", "values": [{"measurement": "cell growth inhibition ratio", "setting": "[1]", "value": 59.9, "unit": "%"}, {"measurement": "cell growth inhibition ratio", "setting": "[2]", "value": 11.9, "unit": "%"}]}
{"smiles": "C[C@]12CCC(=O)C=C1CC[C@@H]1[C@@H]2[C@@H](O)C[C@@]2(C)[C@H]1CC[C@]2(O)C(=O)CO", "note": "[Hydrocortisone]", "values": [{"measurement": "cell growth inhibition ratio", "setting": "[1]", "value": 9.42, "unit": "%"}, {"measurement": "cell growth inhibition ratio", "setting": "[2]", "value": -5.36, "unit": "%"}]}
